The list shows a part of the results, in another mix than the full data. The data scatter; read single values as rough.
compound: COC(=O)/C=C/c1ccccc1 [methyl cinnamate]; experiment: log2 ratio of iodoacetamide-alkyne labeling of the cysteine site, DMSO over compound (competition); higher = stronger covalent engagement of the cysteine by the compound, active = 1 or more; conditions: 500 µM; treatment time 1 h; system: HEK293T cell lysate
How it was run: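 Three replicates, each with duplicate channels, were prepared from HEK293T lysate (2 mg/mL) treated with vehicle or electrophile at 500 µM for 1 h at ambient temperature. Iodoacetamide alkyne was then applied for 1 h, and samples were clicked to sCIP-TMT reagents, pooled, trypsin-digested overnight at 37 °C, enriched on streptavidin, acid-eluted and analysed on Orbitrap Eclipse LC-MS/MS with FAIMS, with FragPipe quantification. The log2 competition ratio per cysteine is the mean control-channel divided by the mean compound-channel reporter intensity. Cysteines quantified in only one replicate were left out.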

Sequences of proteins named here, by UniProt entry; tags and fusion partners are left off. A change or cut given only in a name is not applied to a line headed by its entry.
UniProt P08237: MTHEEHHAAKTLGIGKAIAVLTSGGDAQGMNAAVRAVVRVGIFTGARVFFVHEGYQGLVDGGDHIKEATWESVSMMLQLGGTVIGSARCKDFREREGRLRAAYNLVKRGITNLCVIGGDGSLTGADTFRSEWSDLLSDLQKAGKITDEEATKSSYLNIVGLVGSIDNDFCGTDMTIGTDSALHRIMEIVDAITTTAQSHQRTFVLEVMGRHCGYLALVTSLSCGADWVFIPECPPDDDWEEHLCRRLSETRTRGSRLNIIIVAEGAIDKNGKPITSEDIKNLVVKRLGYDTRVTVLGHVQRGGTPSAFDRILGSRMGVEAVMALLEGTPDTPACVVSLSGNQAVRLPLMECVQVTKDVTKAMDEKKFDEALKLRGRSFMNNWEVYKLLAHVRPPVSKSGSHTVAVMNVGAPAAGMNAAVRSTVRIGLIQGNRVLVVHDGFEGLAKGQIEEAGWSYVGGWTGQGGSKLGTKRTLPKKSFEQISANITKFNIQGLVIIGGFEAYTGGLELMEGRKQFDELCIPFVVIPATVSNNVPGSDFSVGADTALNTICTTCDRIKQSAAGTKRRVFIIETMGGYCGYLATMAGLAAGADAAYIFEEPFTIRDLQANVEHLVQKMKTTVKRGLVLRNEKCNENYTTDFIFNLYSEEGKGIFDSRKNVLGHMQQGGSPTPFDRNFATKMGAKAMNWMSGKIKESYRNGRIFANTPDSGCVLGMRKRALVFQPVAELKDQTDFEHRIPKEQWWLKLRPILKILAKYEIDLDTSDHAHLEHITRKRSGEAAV
UniProt P11388: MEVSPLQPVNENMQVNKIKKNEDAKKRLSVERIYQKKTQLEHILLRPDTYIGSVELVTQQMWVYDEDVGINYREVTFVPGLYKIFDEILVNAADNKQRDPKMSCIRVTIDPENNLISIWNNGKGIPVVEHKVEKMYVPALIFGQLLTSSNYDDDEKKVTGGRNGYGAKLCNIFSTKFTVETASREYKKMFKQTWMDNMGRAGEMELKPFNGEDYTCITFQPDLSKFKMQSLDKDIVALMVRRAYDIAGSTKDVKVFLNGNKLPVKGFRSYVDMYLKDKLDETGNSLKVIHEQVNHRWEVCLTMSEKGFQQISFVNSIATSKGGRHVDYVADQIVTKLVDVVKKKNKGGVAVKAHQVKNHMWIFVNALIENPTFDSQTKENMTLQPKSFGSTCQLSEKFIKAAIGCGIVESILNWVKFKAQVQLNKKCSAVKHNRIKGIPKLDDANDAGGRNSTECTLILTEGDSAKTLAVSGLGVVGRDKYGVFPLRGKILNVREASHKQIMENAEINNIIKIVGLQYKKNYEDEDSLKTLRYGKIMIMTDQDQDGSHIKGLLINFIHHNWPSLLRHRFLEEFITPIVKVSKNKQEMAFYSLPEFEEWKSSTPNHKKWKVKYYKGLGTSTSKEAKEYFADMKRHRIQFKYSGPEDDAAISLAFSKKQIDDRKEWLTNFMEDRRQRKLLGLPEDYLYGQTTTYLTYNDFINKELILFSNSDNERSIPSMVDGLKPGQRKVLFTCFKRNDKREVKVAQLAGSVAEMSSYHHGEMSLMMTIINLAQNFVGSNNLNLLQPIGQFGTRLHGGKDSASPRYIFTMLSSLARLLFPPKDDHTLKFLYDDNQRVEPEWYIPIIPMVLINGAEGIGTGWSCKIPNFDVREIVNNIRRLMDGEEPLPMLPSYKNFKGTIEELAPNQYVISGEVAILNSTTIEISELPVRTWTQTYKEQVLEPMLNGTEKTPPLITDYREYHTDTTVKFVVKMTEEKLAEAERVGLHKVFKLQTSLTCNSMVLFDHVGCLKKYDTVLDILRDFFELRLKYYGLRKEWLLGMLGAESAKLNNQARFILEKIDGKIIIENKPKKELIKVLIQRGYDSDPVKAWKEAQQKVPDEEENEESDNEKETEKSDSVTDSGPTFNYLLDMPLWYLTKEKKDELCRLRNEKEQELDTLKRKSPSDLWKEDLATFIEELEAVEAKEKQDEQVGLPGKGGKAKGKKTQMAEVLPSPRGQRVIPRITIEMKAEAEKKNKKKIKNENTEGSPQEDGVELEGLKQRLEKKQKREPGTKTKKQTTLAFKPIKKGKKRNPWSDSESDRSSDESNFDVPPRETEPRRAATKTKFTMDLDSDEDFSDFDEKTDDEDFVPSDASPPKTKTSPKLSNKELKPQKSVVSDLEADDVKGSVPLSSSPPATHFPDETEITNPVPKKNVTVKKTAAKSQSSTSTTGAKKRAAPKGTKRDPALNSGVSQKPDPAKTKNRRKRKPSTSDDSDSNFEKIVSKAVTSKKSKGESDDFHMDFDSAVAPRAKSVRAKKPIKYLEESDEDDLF
UniProt P08574: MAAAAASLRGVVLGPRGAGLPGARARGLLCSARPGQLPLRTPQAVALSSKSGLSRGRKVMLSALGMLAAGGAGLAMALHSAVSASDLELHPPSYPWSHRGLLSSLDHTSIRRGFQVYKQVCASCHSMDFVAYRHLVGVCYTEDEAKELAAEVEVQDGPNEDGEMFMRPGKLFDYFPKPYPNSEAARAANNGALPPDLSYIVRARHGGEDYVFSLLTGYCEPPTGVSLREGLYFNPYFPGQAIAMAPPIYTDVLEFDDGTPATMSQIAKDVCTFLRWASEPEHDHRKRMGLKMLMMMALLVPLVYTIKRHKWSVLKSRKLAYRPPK
UniProt P09622, whole entry, looked up: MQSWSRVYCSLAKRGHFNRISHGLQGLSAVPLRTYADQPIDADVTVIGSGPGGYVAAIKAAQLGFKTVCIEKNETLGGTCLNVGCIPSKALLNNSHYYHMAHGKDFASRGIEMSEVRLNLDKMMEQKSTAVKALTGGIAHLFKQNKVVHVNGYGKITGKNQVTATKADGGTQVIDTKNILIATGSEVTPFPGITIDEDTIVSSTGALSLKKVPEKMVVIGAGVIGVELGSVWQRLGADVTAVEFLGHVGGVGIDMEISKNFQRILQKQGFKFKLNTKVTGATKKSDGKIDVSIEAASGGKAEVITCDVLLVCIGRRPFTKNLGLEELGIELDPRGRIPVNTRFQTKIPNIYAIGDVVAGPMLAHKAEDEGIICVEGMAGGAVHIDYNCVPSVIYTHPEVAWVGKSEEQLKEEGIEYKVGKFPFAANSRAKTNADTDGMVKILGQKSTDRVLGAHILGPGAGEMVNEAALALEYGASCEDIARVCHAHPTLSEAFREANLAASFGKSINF
UniProt P13489: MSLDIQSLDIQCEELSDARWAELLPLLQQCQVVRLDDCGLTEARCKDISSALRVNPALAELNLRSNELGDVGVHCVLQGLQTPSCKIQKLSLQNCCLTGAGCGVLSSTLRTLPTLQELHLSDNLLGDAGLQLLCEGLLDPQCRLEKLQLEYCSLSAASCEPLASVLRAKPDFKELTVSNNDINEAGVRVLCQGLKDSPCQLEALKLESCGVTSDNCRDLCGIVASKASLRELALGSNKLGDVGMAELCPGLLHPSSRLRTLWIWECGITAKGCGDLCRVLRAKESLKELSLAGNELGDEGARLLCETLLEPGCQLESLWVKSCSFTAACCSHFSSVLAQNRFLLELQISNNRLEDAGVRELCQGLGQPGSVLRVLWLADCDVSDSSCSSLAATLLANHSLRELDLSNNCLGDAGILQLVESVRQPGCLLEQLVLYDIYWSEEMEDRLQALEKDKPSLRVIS
UniProt P15924: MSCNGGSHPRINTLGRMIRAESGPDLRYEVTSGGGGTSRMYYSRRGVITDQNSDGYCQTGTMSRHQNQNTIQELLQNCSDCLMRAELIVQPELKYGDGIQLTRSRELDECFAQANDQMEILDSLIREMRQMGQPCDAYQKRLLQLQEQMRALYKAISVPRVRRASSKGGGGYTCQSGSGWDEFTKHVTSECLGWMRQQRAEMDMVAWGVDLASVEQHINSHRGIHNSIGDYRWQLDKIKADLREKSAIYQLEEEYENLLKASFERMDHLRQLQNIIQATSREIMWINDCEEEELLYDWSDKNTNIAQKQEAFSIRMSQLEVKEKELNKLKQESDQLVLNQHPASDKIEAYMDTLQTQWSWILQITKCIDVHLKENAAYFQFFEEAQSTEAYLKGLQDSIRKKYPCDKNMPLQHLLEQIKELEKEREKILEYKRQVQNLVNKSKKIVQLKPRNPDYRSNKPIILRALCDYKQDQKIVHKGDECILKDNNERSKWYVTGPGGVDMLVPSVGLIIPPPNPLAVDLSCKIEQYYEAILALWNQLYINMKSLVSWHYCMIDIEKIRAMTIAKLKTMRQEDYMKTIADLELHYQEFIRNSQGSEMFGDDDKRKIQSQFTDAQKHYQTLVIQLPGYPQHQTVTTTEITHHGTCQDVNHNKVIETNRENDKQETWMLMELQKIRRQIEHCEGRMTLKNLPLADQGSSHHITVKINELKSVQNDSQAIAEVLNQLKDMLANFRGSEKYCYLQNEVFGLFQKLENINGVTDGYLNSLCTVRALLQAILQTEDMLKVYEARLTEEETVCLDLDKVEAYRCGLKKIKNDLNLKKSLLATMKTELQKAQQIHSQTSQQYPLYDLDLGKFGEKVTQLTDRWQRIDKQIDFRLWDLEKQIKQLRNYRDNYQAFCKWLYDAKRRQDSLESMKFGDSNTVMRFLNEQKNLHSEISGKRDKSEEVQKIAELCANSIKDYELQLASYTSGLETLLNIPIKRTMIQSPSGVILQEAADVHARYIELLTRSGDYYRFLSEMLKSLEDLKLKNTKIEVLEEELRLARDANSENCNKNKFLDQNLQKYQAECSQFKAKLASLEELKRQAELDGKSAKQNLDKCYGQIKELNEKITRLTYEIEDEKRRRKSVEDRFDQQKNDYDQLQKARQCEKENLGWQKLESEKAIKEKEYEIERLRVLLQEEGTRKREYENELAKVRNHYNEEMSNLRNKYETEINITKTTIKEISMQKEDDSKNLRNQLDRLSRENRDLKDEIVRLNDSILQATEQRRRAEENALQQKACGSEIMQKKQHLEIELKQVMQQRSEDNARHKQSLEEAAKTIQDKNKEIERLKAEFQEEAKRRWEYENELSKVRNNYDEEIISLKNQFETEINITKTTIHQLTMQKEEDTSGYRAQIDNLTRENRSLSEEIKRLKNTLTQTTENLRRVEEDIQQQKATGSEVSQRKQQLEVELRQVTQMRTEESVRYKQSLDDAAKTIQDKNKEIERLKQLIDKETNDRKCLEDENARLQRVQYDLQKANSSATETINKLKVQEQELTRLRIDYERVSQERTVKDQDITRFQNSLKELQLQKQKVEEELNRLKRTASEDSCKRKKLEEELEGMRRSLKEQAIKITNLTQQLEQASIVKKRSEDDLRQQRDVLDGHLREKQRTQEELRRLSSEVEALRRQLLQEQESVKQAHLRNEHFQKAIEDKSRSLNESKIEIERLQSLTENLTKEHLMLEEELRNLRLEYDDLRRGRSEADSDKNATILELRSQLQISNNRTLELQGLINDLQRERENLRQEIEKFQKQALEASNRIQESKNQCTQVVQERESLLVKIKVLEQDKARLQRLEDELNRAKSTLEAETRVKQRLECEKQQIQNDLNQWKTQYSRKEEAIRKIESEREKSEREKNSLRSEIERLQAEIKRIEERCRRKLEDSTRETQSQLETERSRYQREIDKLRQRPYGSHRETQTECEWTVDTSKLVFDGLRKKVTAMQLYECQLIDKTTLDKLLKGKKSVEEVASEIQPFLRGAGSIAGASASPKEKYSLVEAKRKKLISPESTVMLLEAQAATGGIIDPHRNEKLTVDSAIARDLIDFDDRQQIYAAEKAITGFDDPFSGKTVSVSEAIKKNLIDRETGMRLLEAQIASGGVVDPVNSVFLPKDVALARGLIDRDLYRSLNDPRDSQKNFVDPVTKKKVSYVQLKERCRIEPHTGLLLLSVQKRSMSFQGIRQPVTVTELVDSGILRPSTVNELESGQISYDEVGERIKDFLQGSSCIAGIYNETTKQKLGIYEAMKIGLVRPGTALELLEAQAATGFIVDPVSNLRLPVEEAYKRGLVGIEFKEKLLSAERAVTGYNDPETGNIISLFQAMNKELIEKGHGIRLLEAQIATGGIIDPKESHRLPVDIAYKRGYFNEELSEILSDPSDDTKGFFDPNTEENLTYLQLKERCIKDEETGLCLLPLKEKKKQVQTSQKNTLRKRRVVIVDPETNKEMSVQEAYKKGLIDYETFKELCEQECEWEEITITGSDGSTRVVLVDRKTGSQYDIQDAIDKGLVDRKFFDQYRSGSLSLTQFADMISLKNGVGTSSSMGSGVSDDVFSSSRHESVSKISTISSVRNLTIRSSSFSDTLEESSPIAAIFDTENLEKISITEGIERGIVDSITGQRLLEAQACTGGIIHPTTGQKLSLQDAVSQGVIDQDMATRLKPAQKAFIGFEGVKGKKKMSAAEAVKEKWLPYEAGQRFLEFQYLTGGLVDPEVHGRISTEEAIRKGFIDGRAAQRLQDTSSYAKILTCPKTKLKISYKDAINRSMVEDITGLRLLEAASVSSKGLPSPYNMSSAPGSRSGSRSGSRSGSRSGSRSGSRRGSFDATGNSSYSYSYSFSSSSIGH

log2 ratio of iodoacetamide-alkyne labeling, inactive:
PRKAR1A C18 (UniProt P10644) 0.389, PFKM C351 (UniProt P08237) -0.123, TOP2A C216 (UniProt P11388) 0.124, PRKAR2A C128 (UniProt P13861) 0.088, CYC1 C219 (UniProt P08574) -0.0229, UniProt P14618_C326 -0.121, EEF2 C567 (UniProt P13639) 0.0751, DLD C484 (UniProt P09622) 0.0486, PRKAR1A C39 (UniProt P10644) 0.175, HSP90AA1 C481 (UniProt P07900) 0.229, RNH1 C409 (UniProt P13489) 0.125, RPSA C163 (UniProt P08865) -0.506, RPS2 C182 (UniProt P15880) 0.0673, EEF2 C290 (UniProt P13639) -0.129, EEF2 C67 (UniProt P13639) -0.203, CAPN2 C640 (UniProt P17655) 0.164, DSP C1855 (UniProt P15924) 0.459
